{"source": "PubChem BioAssay AID1508588 – Peter MacCallum Cancer Centre – 2020", "screen": "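Genome-wide search for knock-downs that heighten vemurafenib action in melanoma cells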 (primary screen)", "system": "human WM266.4 melanoma cells (BRAF V600 mutant)", "reagent": "siRNA pool against human genes, 40 nM", "duration": "96 h from transfection to read-out", "challenge": "vemurafenib 300 nM (about IC25), added 48 h after transfection, for 48 h; comparison arm got DMSO vehicle only", "measured": "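Cell gain (DAPI nuclei at end minus before drug, mean of two replicates) and medium lactate by absorbance per cell, both as ratio to non-targeting siRNA, also grouped into fold-change classes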", "scale": "cell gain with vemurafenib: higher = more cell gain than with non-targeting siRNA; lactate per cell with vemurafenib: higher = more lactate made per cell", "rule for the call": "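Enhancement is called by pairing each knock-down's vehicle-arm and drug-arm fold-change classes for viability or glycolysis; which class combinations qualify is not given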", "meaning of the calls": "active = enhances vemurafenib effect; inactive = no enhancement seen", "note": "In all, the deposit lists about 18,000 reagents; this is a part drawn at random. Over the whole deposit, 790 (4.4%) were called active. 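Calls rest on a combination of fold-change classes in drug and vehicle arms, not all shown here.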"}
{"gene knocked down": "PCDHA11 (protocadherin alpha 11)", "cell gain with vemurafenib": 0.7, "lactate per cell with vemurafenib": 0.56, "activity call": "inactive"}
{"gene knocked down": "RDH11 (retinol dehydrogenase 11)", "cell gain with vemurafenib": 0.37, "lactate per cell with vemurafenib": 0.79, "activity call": "inactive"}
{"gene knocked down": "NLRC5 (NLR family CARD domain containing 5)", "cell gain with vemurafenib": 0.54, "lactate per cell with vemurafenib": 1.29, "activity call": "inactive"}
{"gene knocked down": "DET1 (DET1 partner of COP1 E3 ubiquitin ligase)", "cell gain with vemurafenib": 0.9, "lactate per cell with vemurafenib": 0.82, "activity call": "inactive"}
{"gene knocked down": "THAP10 (THAP domain containing 10)", "cell gain with vemurafenib": 0.38, "lactate per cell with vemurafenib": 0.63, "activity call": "inactive"}
{"gene knocked down": "EBF2 (EBF transcription factor 2)", "cell gain with vemurafenib": 0.24, "lactate per cell with vemurafenib": 0.15, "activity call": "active"}
{"gene knocked down": "ARPIN (actin related protein 2/3 complex inhibitor)", "cell gain with vemurafenib": -0.08, "lactate per cell with vemurafenib": 1.04, "activity call": "inactive"}
{"gene knocked down": "GUCA2A (guanylate cyclase activator 2A)", "cell gain with vemurafenib": 0.59, "lactate per cell with vemurafenib": 0.6, "activity call": "inactive"}
{"gene knocked down": "SLC45A4", "cell gain with vemurafenib": 0.92, "lactate per cell with vemurafenib": 0.74, "activity call": "inactive"}
{"gene knocked down": "ZFP3 (ZFP3 zinc finger protein)", "cell gain with vemurafenib": 0.9, "lactate per cell with vemurafenib": 0.99, "activity call": "inactive"}
{"gene knocked down": "UNC13A (unc-13 homolog A)", "cell gain with vemurafenib": 0.3, "lactate per cell with vemurafenib": 1.12, "activity call": "inactive"}
{"gene knocked down": "MCOLN1 (mucolipin TRP cation channel 1)", "cell gain with vemurafenib": 1.08, "lactate per cell with vemurafenib": 0.64, "activity call": "inactive"}
{"gene knocked down": "PXDN (peroxidasin)", "cell gain with vemurafenib": 0.63, "lactate per cell with vemurafenib": 0.3, "activity call": "inactive"}
{"gene knocked down": "CCL8 (C-C motif chemokine ligand 8)", "cell gain with vemurafenib": 0.57, "lactate per cell with vemurafenib": 2, "activity call": "inactive"}
{"gene knocked down": "PLA2G4E (phospholipase A2 group IVE)", "cell gain with vemurafenib": 0.24, "lactate per cell with vemurafenib": 1.16, "activity call": "inactive"}
{"gene knocked down": "TOP1MT (DNA topoisomerase I mitochondrial)", "cell gain with vemurafenib": 0.52, "lactate per cell with vemurafenib": 1.71, "activity call": "inactive"}

Taken from above:
Entry for PLA2G4E (phospholipase A2 group IVE) under “cell gain with vemurafenib”: 0.24
Entry for PCDHA11 (protocadherin alpha 11) in “activity call”: inactive
Value for UNC13A (unc-13 homolog A) in “cell gain with vemurafenib”: 0.3
